# Where “and” joins values, the source holds several entries; their conditions need not be identical. Identical values can stand only once. The whole screen tested about 78,000 compounds, of which about 1,800 (2.3%) were called active. The shares of active, inactive and inconclusive entries below differ from those in the screen. Rule as the data show it: active = inhibition above about 30%; inconclusive = mostly about 10% to 28%; inactive = weaker than that.
# Amino acid sequences for entries named in this document (tags omitted). A change or cut given only in a name is not applied to a line headed by its entry.
# UniProt Q01638: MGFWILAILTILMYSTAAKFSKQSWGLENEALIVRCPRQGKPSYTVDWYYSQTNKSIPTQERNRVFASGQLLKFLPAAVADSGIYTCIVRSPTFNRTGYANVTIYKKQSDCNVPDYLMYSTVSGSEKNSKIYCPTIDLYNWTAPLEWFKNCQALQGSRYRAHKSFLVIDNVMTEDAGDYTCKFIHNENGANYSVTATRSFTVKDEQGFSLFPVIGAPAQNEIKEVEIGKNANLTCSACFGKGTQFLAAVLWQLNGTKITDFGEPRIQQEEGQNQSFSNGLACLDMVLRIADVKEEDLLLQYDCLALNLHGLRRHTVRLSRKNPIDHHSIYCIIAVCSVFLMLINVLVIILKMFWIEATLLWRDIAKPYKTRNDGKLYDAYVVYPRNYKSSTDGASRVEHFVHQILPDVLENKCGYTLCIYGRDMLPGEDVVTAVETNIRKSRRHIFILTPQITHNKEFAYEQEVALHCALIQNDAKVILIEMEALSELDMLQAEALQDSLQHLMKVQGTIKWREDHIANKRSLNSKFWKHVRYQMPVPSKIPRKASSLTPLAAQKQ
# Target: Interleukin-1 receptor-like 1 (Homo sapiens) (UniProt Q01638)
# Experiment: blocks human ST2 binding to IL-33, primary screen, biochemical, AlphaLISA (AID 1259354)
# Conditions: AlphaLISA ST2-Fc/biotin-IL-33 interaction, 1 h; at 17 µM, stronger effect = higher value
row,Compound,inhibition
1,CCOc1ccc(N(CC)C(=O)CCS(=O)(=O)c2cccc3nonc23)cc1,inconclusive: 15%
2,COc1ccc2cc3cc(C(=O)N4CCN(c5ccccc5OC)CC4)oc3nc2c1,inconclusive: 24%
3,COc1ccc(CN2CCN(C3CSCCSC3)CC2CCO)c(F)c1 (stereo unspecified),inactive
4,COc1ccc(OC)c(NC(=O)c2cc(-c3cccs3)nc3ccccc23)c1,inconclusive: 16%
5,CCOc1ccc(CC(=O)N2CCN=C2SCc2ccccc2C)cc1,inactive
6,O=C(N1CC[C@H](CO)[C@@H](O)C1)C1(S(=O)(=O)c2ccccc2)CC1,inactive
7,COc1ccc(C(=O)Nc2cccc(Cl)c2)cc1,inactive
8,COc1cc(Br)c(Br)c(/C=C2/SC(=O)NC2=O)c1O,inconclusive: 12%
9,O=C(c1cccc2ccccc12)C1CCCN(C(=O)c2ccc[n+]([O-])c2)C1 (stereo unspecified),inactive
10,CCCCn1c(CNC(=O)CCC)nc2ccccc21,inconclusive: 11%
11,COc1ccc(-c2noc([C@@H]3C[C@H](NC(=O)NC(C)C)CN3C)n2)cc1,active: 42%
12,Cc1ccc(C(=O)c2ccccc2C(=O)N2CCn3cncc3C2)cc1,inactive
13,COc1ccc(C2CC(C3C(=O)c4ccccc4C3=O)=NN2)cc1 (stereo unspecified),active: 39% and active: 36%
14,O=CNC(Cc1ccccc1)Cc1ccccc1,inactive
15,CCCOC(=O)c1ccc(NS(=O)(=O)c2cccc3nsnc23)cc1,inactive
16,O=C(O)/C=C/c1ccc(-c2cccc(C(F)(F)F)c2)o1,inconclusive: 12%
17,COc1cc(OC)c(NC(=O)CNC(=O)Cn2c(C)cc3ccccc3c2=O)cc1Cl,inconclusive: 18%
18,COc1ccc(S(=O)(=O)N2CCN(c3nc(C)cc(Nc4ccc(C)cc4)n3)CC2)cc1OC,inconclusive: 23%
19,Cc1cc(C(=O)N2CCCC(C(=O)c3ccc(Cl)cc3C)C2)nc(C)n1 (stereo unspecified),inconclusive: 15%
20,CC1=CCC(C(=O)O)(C(=O)n2nc(C)cc2C)C(c2ccccc2)C1 (stereo unspecified),inconclusive: 10%
21,Cc1nc2ccccc2c(=O)[nH]1,inactive
22,CCn1ccnc1CNC(=O)COc1c(C)ccc(C)c1C,inconclusive: 12%
23,FC(F)(F)c1ccc(N2CCN(Cc3ccccc3)CC2)nc1,inactive
24,CC(C)NC(=O)N[C@H]1C[C@H]2C(=O)NC[C@@H](CCC(=O)N3CCCCC3)N2C1,inconclusive: 10%

row,Compound,inhibition
1,Cc1nc2sccn2c1CN1CCCC(C(=O)Nc2ccc(-c3ccco3)cc2)C1 (stereo unspecified),inconclusive: 20%
2,Cc1ccc(N2COc3ccc(Br)cc3C2)cc1,inconclusive: 12%
3,Cc1ccc(OCC(O)CN2CCCC(C)C2)c(C)c1 (stereo unspecified),inactive
4,O=C1NC(c2ccc3c(c2)OCO3)Nc2ccccc21 (stereo unspecified),inconclusive: 10%
5,COc1ccccc1NC(=O)C(C)SCc1ccccc1 (stereo unspecified),inactive
6,C=CCOc1ccc(C=Nc2ccc(C)cc2C)c(O)c1,active: 38%
7,O=C(Nc1ccc(F)cc1)c1ccc(NC(=O)C2CCCO2)cc1 (stereo unspecified),inactive
8,C=CCOC(=O)NCc1cnn2ccccc12,active: 40%
9,CCOc1cc(OCC)cc(C(=O)Nc2ccc(-c3nc4ncccc4o3)cc2)c1,inconclusive: 19%
10,O=C(NCc1ccc(F)cc1)c1cc2nc(-c3ccco3)cc(C(F)(F)Cl)n2n1,inconclusive: 19%
11,Cc1ccc(-c2nc3c(C)cccn3c2Nc2ccccc2)o1,inactive
12,N#C/C(=C\C=C\c1ccccc1)c1nc2ccccc2[nH]1,inconclusive: 28%
13,O=S(=O)(c1cccc2nonc12)N1CCCCCC1,inconclusive: 21%
14,COc1ccc(N2CCN(C(=O)CCS(=O)(=O)c3ccc(Br)s3)CC2)cc1,inactive
15,CCOc1cccc(CN2CCN(Cc3cccs3)C(CCO)C2)c1O (stereo unspecified),inactive
16,COc1cccc(F)c1OCc1nc(CC2CC2)no1,inconclusive: 16%
17,Cc1n[nH]c(C)c1CCC(=O)N1CCc2c(nc(-c3ccccc3)[nH]c2=O)C1,inconclusive: 19%
18,N#Cc1c(C(F)(F)F)cc(-c2ccccc2)nc1SCC(=O)C1CC1,inconclusive: 16%
19,O=C1CCCC2=C1C(c1ccccc1Cl)n1nc(SCc3ccccc3)nc1N2 (stereo unspecified),inconclusive: 10%
20,CN1CCC(N2CC[C@H](c3nnc(Cc4ccccc4)o3)C2)CC1,inconclusive: 14%
21,Cc1ccc(-c2[nH]nc3c2C(c2ccccc2F)C(C#N)=C(N)O3)cc1 (stereo unspecified),inactive
22,Brc1ccc(C2CC(c3ccccc3)n3nnnc3N2)cc1 (stereo unspecified),inactive
23,Cc1ccc(N=Cc2nc(-c3ccc(Br)cc3)oc2O)c(Br)c1,inconclusive: 16%
24,c1cncc(NCCNC2CSCCSC2)c1,inconclusive: 13%

row,Compound,inhibition
1,Clc1ccc(-c2nc(-c3ccccc3)no2)cc1Cl,inactive
2,Cc1ccc(-n2c(=O)c3sccc3n(Cc3cc(=O)n4cc(Cl)ccc4n3)c2=O)cc1F,inconclusive: 17%
3,Nc1ncccc1CN1CCCC1c1ccc(F)cc1 (stereo unspecified),inconclusive: 12%
4,COc1ccc(C)cc1NS(=O)(=O)c1ccc2c3c(cccc13)C(=O)N2,inconclusive: 13%
5,COc1ccc(C2C(C(=O)NCCN(C)C)c3cc(OC)c(OC)cc3C(=O)N2C)cc1 (stereo unspecified),active: 33%
6,CC(C)CN1CC(C(=O)N2CCC(O)(c3ccccc3)CC2)CC1=O (stereo unspecified),inconclusive: 12%
7,CCCCC(=O)Nc1nnc(N=Cc2ccccc2Cl)s1,inactive
8,COc1ccc(Cl)cc1NC(=O)CSc1nc2c(c(=O)n1-c1ccccc1)SCC2,inconclusive: 17%
9,O=C(NCCc1ccc(Cl)cc1)c1ccc2c(c1)N(Cc1ccc(F)cc1)C(=O)CS2,inconclusive: 13%
10,O=C(O)Cn1c2ccccc2c2cc([N+](=O)[O-])ccc21,inconclusive: 17%
11,OC1(C#CCN2CCOCC2)CCCCC1,inconclusive: 11%
12,Cc1ccc(OCc2cc(C(=O)N3CCCC3c3nc4ccccc4s3)no2)cn1 (stereo unspecified),inconclusive: 11%
13,OCC1(Cc2ccccc2)CCCN(c2ccc(-c3ccccc3)nn2)C1 (stereo unspecified),inconclusive: 11%
14,COC(=O)c1ccc(NC(=O)CN2CCCN(Cc3ccccc3)S2(=O)=O)cc1,inconclusive: 12%
15,CC(C)CCNC(=O)NCCc1nc2cccnc2n1Cc1ccccc1,inconclusive: 14%
16,COc1ccc(NC2CCCN(C3CCN(c4ccccc4C)CC3)C2)cc1OC (stereo unspecified),active: 34%
17,COc1cccc(-c2cc(C(=O)N3CCN4CCN(C)CC4C3)[nH]n2)c1 (stereo unspecified),inconclusive: 15%
18,O=C(Nc1nc2ccccc2s1)c1cccc(Br)c1,inconclusive: 20%
19,COc1cc(NC(=O)Cc2c(C(=O)O)[nH]c3ccc(Cl)cc23)cc(OC)c1OC,inconclusive: 10%
20,O=C(CC1COCCN1)NCCC(c1ccccc1)c1ccccc1 (stereo unspecified),inconclusive: 10%
21,CCC1CN(Cc2cnn(C)c2C2CC2)CCN1C(C)C (stereo unspecified),inconclusive: 14%
22,CS(=O)(=O)Nc1cc(-c2noc([C@@H]3CCCN3Cc3ccncc3)n2)ccn1,inactive
23,CCOC(=O)C1=NNC2(c3ccc(Cl)cc3)C(=O)N(c3cccc(Br)c3)C(=O)C12 (stereo unspecified),inconclusive: 13%
24,Cc1cccc(-n2ncc3c(NCc4ccc(F)cc4)ncnc32)c1,inconclusive: 14%

row,Compound,inhibition
1,CCOc1ccc2nc(Cl)c(C3CC(c4ccc(OC)cc4)=NN3C(=O)c3ccco3)cc2c1 (stereo unspecified),inconclusive: 15%
2,Cc1ccc(Nc2nc(Cl)nc(N3CCOCC3)n2)cc1Cl,inconclusive: 14%
3,Cc1ccc(N2C(=O)C3C4CCC(C4)C3C2=O)cc1F (stereo unspecified),inconclusive: 12%
4,CN(Cc1nc2ccc(F)cc2[nH]1)C(=O)C1CC(=O)Nc2ccc(F)cc21 (stereo unspecified),inconclusive: 10%
5,COc1ccccc1NC(=O)C1=C(C)Nc2nnnn2C1c1ccccc1OC(F)F (stereo unspecified),inconclusive: 11%
6,CC(C)(C)c1ccc(C(=O)Nc2nc3c(s2)C[C@@H]2[C@](C)(CO)[C@H](O)CC[C@@]2(C)[C@@H]3CC(=O)N2CCC(C(N)=O)CC2)cc1,inconclusive: 17%
7,CCCN1CCN(CCCNC(=O)c2cn(CC(C)C)c(=O)c3c2c2ccccc2n3C)CC1,inactive
8,CCN(CC)CCNC(=O)c1cn(CC)c(=O)c2cc(OC)c(OC)cc12,inconclusive: 12%
9,CCOC(=O)C1CCN(C2CCN(c3cccc(NS(=O)(=O)c4ccc(F)cc4)c3)CC2)CC1,inconclusive: 16%
10,CC(C)C1=NOC(CNC(=O)CSCc2ccccc2Cl)C1 (stereo unspecified),inconclusive: 11%
11,CCn1cc(C(=O)NCC2CCCO2)c(=O)c2cc(S(=O)(=O)N3CCCCCC3)ccc21 (stereo unspecified),inconclusive: 14%
12,CN(C)c1ccc(CN2CCc3ccccc3C2)cc1,active: 31%
13,COCC1CCCN(C(=O)c2ccc(-c3ccccc3CN(C)C)nc2)C1 (stereo unspecified),inconclusive: 17%
14,CC(C)Cc1ccc([C@H](C)C(=O)O)cc1,inconclusive: 19%
15,CCCCC1C=CCN1C(=O)Cc1c[nH]c(=O)n(C)c1=O (stereo unspecified),inactive
16,CCc1cc2c(=O)c(-c3nc(C)cs3)c(N)oc2c(CN2CCCCC2)c1O,inactive
17,COc1cccc2c1OCC(C1CC(=O)Nc3cc4[nH]ncc4cc31)=C2 (stereo unspecified),inactive
18,COc1cccc(NS(=O)(=O)c2ccc3c(c2)CCN3C(=O)C2CCC2)c1,inactive
19,Cc1ccc(Nc2ncnc3sc(C)cc23)c(C)c1,inconclusive: 20%
20,COc1cc(CN2CCN(c3cccc(C)c3C)CC2)cc(OC)c1OC,inconclusive: 19%
21,O=C(Nc1ccc(OCc2ccccc2)cc1)c1ccc(Br)o1,inactive
22,CCO/C=C1\c2cc([N+](=O)[O-])ccc2-c2c1cc([N+](=O)[O-])cc2[N+](=O)[O-],active: 54%
23,NC(=O)c1c(NC(=O)COc2ccc(Cl)cc2Br)sc2c1CCCC2,inactive
24,CCOC(=O)C1(CCOc2ccccc2)CCN(C(=O)C2=CCCCC2)CC1,inconclusive: 17%
